The record followed here is US4318905A (Syntex (U.S.A.) Inc., priority 1980, dated 1982).

Data set [1] can be described thus: general procedure: Boc solid-phase peptide synthesis; benzhydrylamino-polystyrene-divinylbenzene resin; DCC/HBT. Conditions: whole synthesis, scale 1.0 mmol, HF salt.
Data set [2] in a line: general procedure: Boc solid-phase peptide synthesis; Boc-Pro-O-Resin (chloromethyl-polystyrene/1% divinylbenzene); DCC/HBT. Particulars: whole synthesis, scale 1.4 mmol, acetic acid addition salt.

“(pyro)-Glu-His-Trp-Ser-Tyr-3-(2-benzimidazolyl)-D-alanyl-Leu-Arg-Pro-Gly-NH2”: the crude mass in data set [1] was found to be 0.4 g.
As for “pyro-glutamyl-histidyl-tryptophyl-seryl-tyrosyl-3-(2-benzimidazolyl)-D-alanyl-leucyl-arginyl-proline ethylamide”, in data set [2], the crude mass is listed as 1.10 g.
